T1: IGSF8 extracellular domain (ED) (Homo sapiens (Human)) (UniProt Q969P0)
T1 sequence: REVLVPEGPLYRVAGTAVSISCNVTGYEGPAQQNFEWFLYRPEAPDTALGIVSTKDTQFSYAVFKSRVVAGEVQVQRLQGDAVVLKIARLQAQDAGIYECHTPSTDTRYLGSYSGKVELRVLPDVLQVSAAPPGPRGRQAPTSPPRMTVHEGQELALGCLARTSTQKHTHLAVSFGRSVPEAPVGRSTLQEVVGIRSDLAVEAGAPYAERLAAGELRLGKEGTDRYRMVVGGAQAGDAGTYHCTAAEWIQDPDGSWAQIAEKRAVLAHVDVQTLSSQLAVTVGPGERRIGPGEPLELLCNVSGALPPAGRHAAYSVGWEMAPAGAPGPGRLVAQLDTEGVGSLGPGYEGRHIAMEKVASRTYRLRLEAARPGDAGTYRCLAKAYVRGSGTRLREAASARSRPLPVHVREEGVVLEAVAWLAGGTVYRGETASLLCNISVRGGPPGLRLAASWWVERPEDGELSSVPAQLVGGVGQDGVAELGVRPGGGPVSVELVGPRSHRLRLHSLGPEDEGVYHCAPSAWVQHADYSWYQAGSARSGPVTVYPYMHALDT

B1: Antibody C3 (antibody, V domains shown)
VH: QVQLVESGGGLVQPGGSLRLSCAASGFTFSHYPMRWVRQAPGKGLEWVSSIRRSGGRTKYADSVKGRFTISRDNSKNTLYLQMNSLRAEDTAVYYCARDATGRHYNGMDVWGKGTTVTVSS
VL: DVVMTQSPSSLSASVGDRVTITCRTSQVIGTSLNWYQQKPGRAPRLLIYSASNLQSGVPSRFSGSGHGTQFTLTISSLQPEDFATYSCQQSSRVPHTFGQGTKLEMRR
B2: Antibody C6 (antibody, V domains shown)
VH: EVQLVESGGGLVQPGGSLRLSCAASGFTFSPYRMHWVRQAPGKGLEWVSRINPSGGRTWYADSVKGRFTISRDNSKNTLYLQMNSLRAEDTAVYYCARDATGRHYNGMDVWGQGTMVTVSS
VL: DIQMTQSPSTLSASVGDRVTITCRASQSINKWLAWYQQKPGKAPKLLIYKASTLESGVPSRFSGSGSGTDFTLTINSLQPEDFATYYCQQSHSAPWTFGQGTKVEIER
B3: Antibody C7 (antibody, V domains shown)
VH: EVQLEESGGGLVQPGGSLRLSCAASGFTFSSYPMNWVRQAPGKGLEWVSRISRSGGRTSYADSVKGRFTISRDNSKNTLYLQMNSLRAEDTAVYYCARDATRRHYNGMDVWGKGTTVTVSS
VL: ETTLTQSPATLSLSPGERASLSCRASRSVGKYLAWYQQKPGQAPRLLFYYASLRAGDIPSRFTASGSGTDFTLTISRLEPEDFAVYYCQQYGSSPRTFGQGTKLEMKR
B4: Antibody C5 (antibody, V domains shown)
VH: EVQLVQSGGGLVQPGGSLRLSCAASGFTFSRYRMAWVRQAPGKGLEWVSNITRSGGVTRYADSVKGRFTISRDNSKNTLYLQMNSLRAEDTAVYYCARDPNRVTAISSHYGMDVWGKGTTVTVSS
VL: EIVLTQSPSTLSASVGDRVTISCRASQSISRWLAWYQQKPGQAPRLLIYDASNRATGVPARFSVSGSETDSTLTISSLEPEDFAMYYCQQRSNWPPMYTFGQGTKLEIKR
B5: Antibody C11 (antibody, V domains shown)
VH: EVQLVESGGGLVQPGGSLRLSCAASGFTFSRYRMYWVRQAPGKGLEWVSSISSSGGRTKYADSVKGRFTISRDNSKNTLYLQMNSLRAEDTAVYYCARGVRYCSSPSCSRGPRYAMDVWGKGTTVTVSS
VL: DIQMTQSPSSLSASVGDRVTITCRASYVIRNDLSWYQQKPGKAPKLLIYGTSSLHNGVPSRFSGSGYGTYFTLTISSLQPEDFGTYYCLQDDKYPLTFGGGTKVEIKR
B6: Antibody C9 (antibody, V domains shown)
VH: EVQLVESGGGLVQPGGSLRLSCAASGFTFSRYDMSWVRQAPGKGLEWVSRIRYSGGRTGYADSVKGRFTISRDNSKNTLYLQMNSLRAEDTAVYYCARGVRYCSSPSCSRGPRYAMDVWGKGTTVTVSS
VL: DVVMTQSPATLSLSPGEGATLSCRASQSVRGYLAWYQQKPGQAPRLLIYDTFKRATGIPARFSGSGSGADFTLTISSLEPEDSAVYYCQQYFASPWTFGQGTKVEIKR
B7: Antibody C1 (antibody, human IgG1, V domains shown)
VH: QVQLLQSGGGLVQPGGSLRLSCAASGFTFSRYRMSWVRQAPGKGLEWVSRISRSGGATAYADSVKGRFTISRDNSKNTLYLQMNSLRAEDTAVYYCARDATGRHYNGMDVWGRGTLVTVSS
VL: EIALTQSPSSLSASVGDRVTITCRASQTITRHLNWFQQKPGKAPNLLIHGTSALQTGVPPRFSGGGSGTDFTLTINSLQPEDFGTYYCQQSHTKPWTFGPGTKVEIKR
B8: Antibody C2 (antibody, V domains shown)
VH: EVQLLQSGGGLVQPGGSLRLSCAASGFTFSSYPMNWVRQAPGKGLEWVSRISRSGGRTSYADSVKGRFTISRDNSKNTLYLQMNSLRAEDTAVYYCARDATRRHYNGMDVWGKGTTVTVSS
VL: DVVMTQSPATLSLSPGERASLSCRASRSVGKYLAWYQQKPGQAPRLLFYYASLRAGDIPSRFTASGSGTDFTLTISRLEPEDFAVYYCQQYGSSPRTFGQGTKLEMKR
B9: Antibody C12 (antibody, V domains shown)
VH: EVQLVESGGGLVQPGGSLRLSCAASGFTFSKYKMSWVRQAPGKGLEWVSTIAPSGGGTRYADSVKGRFTISRDNSKNTLYLQMNSLRAEDTAVYYCARGGHFSNPWGQGTLVTVSS
VL: DVVMTQSPLSLPVTLGQPASISCRSSQSLVHTDGDTYLNWYQQRPGQSPRRLIYKVSKRDSGVPDRFSGSGSGTDFTLKISRVEAEDVGVYYCMQGIKRPYTLGQGTKLEIKR
B10: Antibody C10 (antibody, V domains shown)
VH: EVQLLESGGGLVQPGGSLRLSCAASGFTFSRYRMYWVRQAPGKGLEWVSTISRSGGRTVYADSVKGRFTISRDNSKNTLYLQMNSLRAEDTAVYYCARDATGRHYNGMDVWGQGTLVTV
VL: ETTLTQSPATLSVSPGERATLSCRASQSVSSNVAWYQQKPGQAPRLLMFGSGTRATGIPARFSGSGSGTEFTLTISSLQSEDFAAYYCQQYNDWPSFGQGTRVEIKG

The values below come from US20230056288A1.

No constants are given. Whether binding was seen depends on the method and setting. Some results given as binding are weak or reduced against the parent protein; the word gives no strength.

The assay has as its target T1, IGSF8 extracellular domain (ED) (Homo sapiens (Human)). Put plainly: ELISA on IGSF8 extracellular domain. A general note: ELISA stands for enzyme-linked immunosorbent assay.
With B1, the binding entry is “binds”.

For the molecule B2, the binding result is on record as “binds”.

On to B3, for which the binding entry is “binds”.

For the molecule B4, the binding result is “binds”.

In the case of B5, the binding entry is given as “binds”.

Consider B6, for which the binding entry is “binds”.

For B7, the binding entry is reported as “binds”.

In the case of B8, the binding entry is recorded as “binds”.

With B9, the binding entry is on record as “binds”.

As to B10, the binding result is on record as “binds”.
